For assay [1], the target named is T1, BRAP-CTD (84–354 aa of human BRAP) fused with the GAL4 DNA binding domain and a c-Myc epitope tag (pGBKT7-BRAP-CTD) (human) (UniProt Q6UWU4).
T1 sequence: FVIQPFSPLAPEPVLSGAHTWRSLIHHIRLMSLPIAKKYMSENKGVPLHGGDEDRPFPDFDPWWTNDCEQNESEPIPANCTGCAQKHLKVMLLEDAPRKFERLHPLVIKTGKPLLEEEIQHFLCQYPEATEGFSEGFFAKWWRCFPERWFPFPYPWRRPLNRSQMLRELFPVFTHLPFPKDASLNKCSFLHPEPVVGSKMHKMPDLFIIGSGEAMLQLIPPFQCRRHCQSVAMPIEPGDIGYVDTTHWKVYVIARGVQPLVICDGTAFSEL
The assay can be described thus: two-hybrid; Matchmaker Gold yeast two-hybrid library screen: Y2HGold with bait pGBKT7-BRAP-CTD mated with Y187 with normalized universal human Mate & Plate Library; diploids grown on SD/–Leu/–Trp at 30°C for 3 d, replica-plated onto SD/–Ade/–His/–Leu/–Trp with X-α-Gal; blue colonies sequenced.

Assay [2] has as its target ATG5, endogenous in 16HBE14o- cells (human (endogenous in 16HBE14o-)) (UniProt Q9H1Y0). Briefly: co-IP; endogenous proteins in 16HBE14o- lysate (RIPA buffer); 1 μg of anti-ATG5 or anti-BRAP antibody and Protein A Dynabeads, 4°C overnight; washed with NP-40 buffer; immunoblot.
Assay [3] has as its target GST-tagged recombinant ATG5 (pGEX4T1-ATG5) (UniProt Q9H1Y0). The assay can be described thus: pull-down; GST-tagged ATG5 from E. coli lysate bound to glutathione agarose resin and washed, then incubated with E. coli lysate containing MBP-tagged BRAP-CTD for 1 h at 4°C; washed in PBS; immunoblot with anti-BRAP; only the target purified. (In western blotting, separated proteins are transferred to a membrane and probed.)

No constants are given. Whether binding was seen depends on the method and setting. For some of these results: Binding seen in cells or lysates may run through a third protein. Some entries that bind do so weakly or less than the wild type. For some of these results: Sequences can lack the tags named with a protein.

Our source for the binding values is publication PMC9275683.

B1: ATG5 fragment 1–165 aa (library clone of the yeast two-hybrid screen) (domain or fragment, UniProt Q9H1Y0 1-165)
chain: MTDDKDVLRDVWFGRIPTCFTLYQDEITEREAEPYYLLLPRVSYLTLVTDKVKKHFQKVMRQEDISEIWFEYEGTPLKWHYPIGLLFDLLASSSALPWNITVHFKSFPEKDLLHCPSKDAIEAHFMSCMKEADALKHKSQVINEMQKKDHKQLWMGLQNDRFDQF
As to B1, the binding result in assay [1] was “binds”.

B2: ATG5 fragment 1–161 aa (library clone of the yeast two-hybrid screen) (domain or fragment, UniProt Q9H1Y0 1-161)
chain: MTDDKDVLRDVWFGRIPTCFTLYQDEITEREAEPYYLLLPRVSYLTLVTDKVKKHFQKVMRQEDISEIWFEYEGTPLKWHYPIGLLFDLLASSSALPWNITVHFKSFPEKDLLHCPSKDAIEAHFMSCMKEADALKHKSQVINEMQKKDHKQLWMGLQNDR
For the molecule B2, the binding result in assay [1] was “binds”.

B3: ATG5 fragment 1–158 aa (library clone of the yeast two-hybrid screen) (domain or fragment, UniProt Q9H1Y0 1-158)
chain: MTDDKDVLRDVWFGRIPTCFTLYQDEITEREAEPYYLLLPRVSYLTLVTDKVKKHFQKVMRQEDISEIWFEYEGTPLKWHYPIGLLFDLLASSSALPWNITVHFKSFPEKDLLHCPSKDAIEAHFMSCMKEADALKHKSQVINEMQKKDHKQLWMGLQ
Take B3: the binding entry in assay [1] is reported as “binds”.

B4: Bombesin receptor–activated protein (BRAP), endogenous in 16HBE14o- cells (protein, UniProt Q6UWU4-2 1-354)
chain: MDFILEDMDLAANEISIYDKLSETVDLVRQTGHQCGMSEKAIEKFIRQLLEKNEPQRPPPQYPLLIVVYKVLATLGLILLTAYFVIQPFSPLAPEPVLSGAHTWRSLIHHIRLMSLPIAKKYMSENKGVPLHGGDEDRPFPDFDPWWTNDCEQNESEPIPANCTGCAQKHLKVMLLEDAPRKFERLHPLVIKTGKPLLEEEIQHFLCQYPEATEGFSEGFFAKWWRCFPERWFPFPYPWRRPLNRSQMLRELFPVFTHLPFPKDASLNKCSFLHPEPVVGSKMHKMPDLFIIGSGEAMLQLIPPFQCRRHCQSVAMPIEPGDIGYVDTTHWKVYVIARGVQPLVICDGTAFSEL
On to B4, for which, in assay [2], the binding entry is listed as “binds”.

B5: MBP-tagged BRAP-CTD (pMAL-BRAP-CTD) (domain or fragment, UniProt Q6UWU4-2 84-354)
chain: FVIQPFSPLAPEPVLSGAHTWRSLIHHIRLMSLPIAKKYMSENKGVPLHGGDEDRPFPDFDPWWTNDCEQNESEPIPANCTGCAQKHLKVMLLEDAPRKFERLHPLVIKTGKPLLEEEIQHFLCQYPEATEGFSEGFFAKWWRCFPERWFPFPYPWRRPLNRSQMLRELFPVFTHLPFPKDASLNKCSFLHPEPVVGSKMHKMPDLFIIGSGEAMLQLIPPFQCRRHCQSVAMPIEPGDIGYVDTTHWKVYVIARGVQPLVICDGTAFSEL
Regarding B5, the binding result in assay [3] is “binds”.

B6: ATG5 fragment 1–142 aa (library clone of the yeast two-hybrid screen) (domain or fragment, UniProt Q9H1Y0 1-142)
chain: MTDDKDVLRDVWFGRIPTCFTLYQDEITEREAEPYYLLLPRVSYLTLVTDKVKKHFQKVMRQEDISEIWFEYEGTPLKWHYPIGLLFDLLASSSALPWNITVHFKSFPEKDLLHCPSKDAIEAHFMSCMKEADALKHKSQVI
Regarding B6, the binding result in assay [1] is on record as “binds”.

B7: ATG5 fragment 1–167 aa (library clone of the yeast two-hybrid screen) (domain or fragment, UniProt Q9H1Y0 1-167)
chain: MTDDKDVLRDVWFGRIPTCFTLYQDEITEREAEPYYLLLPRVSYLTLVTDKVKKHFQKVMRQEDISEIWFEYEGTPLKWHYPIGLLFDLLASSSALPWNITVHFKSFPEKDLLHCPSKDAIEAHFMSCMKEADALKHKSQVINEMQKKDHKQLWMGLQNDRFDQFWA
B7: the binding result in assay [1] is recorded as “binds”.
